# Several values for one entry are separate records, joined by “and”; a condition that tells them apart may be missing. Equal values may be shown once. In all, about 580,000 compounds went through this assay and about 6,100 (1.1%) were called active. Inconclusive results, whose numbers are uncertain, are shown with a selection of clear calls. The call rests on the fitted dose curve; in most records, active means well fitted inhibition curve with a large enough effect; inconclusive means small, poorly fitted or top-dose-only effect, or another doubt; inactive means no such curve, though single readings can be large or run the other way. Potencies of inconclusive entries are doubtful fits and often do not repeat.
# Sequences of proteins named here, by UniProt entry; tags and fusion partners are left off. A change or cut given only in a name is not applied to a line headed by its entry.
# UniProt P18054: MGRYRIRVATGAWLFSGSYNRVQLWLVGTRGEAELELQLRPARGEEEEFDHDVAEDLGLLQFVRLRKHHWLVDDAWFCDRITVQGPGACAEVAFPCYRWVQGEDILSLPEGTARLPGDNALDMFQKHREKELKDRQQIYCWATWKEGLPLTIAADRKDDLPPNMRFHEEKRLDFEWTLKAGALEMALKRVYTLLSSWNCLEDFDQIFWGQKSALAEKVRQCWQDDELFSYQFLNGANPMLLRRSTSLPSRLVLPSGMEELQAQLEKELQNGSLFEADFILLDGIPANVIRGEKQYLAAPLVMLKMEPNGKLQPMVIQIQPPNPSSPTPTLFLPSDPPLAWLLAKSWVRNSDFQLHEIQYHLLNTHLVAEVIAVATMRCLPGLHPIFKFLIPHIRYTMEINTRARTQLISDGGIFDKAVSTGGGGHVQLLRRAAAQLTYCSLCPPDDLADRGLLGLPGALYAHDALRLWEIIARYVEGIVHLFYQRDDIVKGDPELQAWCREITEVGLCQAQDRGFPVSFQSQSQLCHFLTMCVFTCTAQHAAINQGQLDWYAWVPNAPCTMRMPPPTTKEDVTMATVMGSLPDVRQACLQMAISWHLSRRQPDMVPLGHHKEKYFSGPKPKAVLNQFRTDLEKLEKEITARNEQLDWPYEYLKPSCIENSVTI
# Target: Polyunsaturated fatty acid lipoxygenase ALOX12 (Homo sapiens) (UniProt P18054)
# Test: Primary qHTS assay for inhibitors of human arachidonate 12S-lipoxygenase (ALOX12): Round 2
# Details: purified 12hLO, xylenol orange hydroperoxide absorbance; activity change, negative = inhibition: at 108 µM (top of the series) unless noted
# Summary of the method: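 Hydroperoxide product was detected by ferrous iron/xylenol orange as the 573 to 405 nm absorbance ratio. Arachidonic acid at 40 uM (final) was turned over for 30 min at room temperature by 150 nM human 12hLO, pH 7.0 Hepes buffer, after 15 min compound preincubation.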
# On the % scale 0 is the no-effect control and ±100 the full control effect; potency means the concentration at half of the fitted maximal effect.
SMILES,Potency,"activity change, negative = inhibition"
CCOc1ccc(NS(=O)(=O)c2ccc(C(=O)NC3CCN(Cc4ccccc4)CC3)cc2)cc1,"inconclusive: 28.2 µM [inhibitor, partial curve, poor fit] and inconclusive: 44.7 µM [inhibitor, partial curve, poor fit]",
CCCc1nc2oc3c(NCC(C)O)ncnc3c2c2c1CCCC2 (stereo not given),"inconclusive: 112 µM [inhibitor, partial curve, poor fit]",
C/C(=N/Nc1ccccc1C(F)(F)F)c1ccccc1Br,"inconclusive: 31.6 µM [inhibitor, partial curve, poor fit]",
O=C(CCC(=O)c1cccs1)Nc1ccc(N2CCOCC2)cc1,"inconclusive: 112 µM [inhibitor, single point]",
O=C(CSc1ncnc2c1cnn2-c1cccc(Cl)c1)NCC1CCCO1 (stereo not given),"inconclusive: 44.7 µM [inhibitor, single point]",
N#Cc1c(/N=C/c2ccc(-c3ccccc3C(=O)O)o2)sc2c1CCCC2,"inconclusive: 35.5 µM [inhibitor, partial curve, poor fit]",
Cn1nc(-c2nncn2Cc2ccccc2)c2c1CCN(C(=O)c1[nH]nc3c1COc1ccccc1-3)C2,,inactive: 101%
COc1ccc(NCc2nc3scc(-c4cccs4)c3c(=O)[nH]2)cc1,"inconclusive: 44.7 µM [inhibitor, partial curve, poor fit]",
Cc1ccc(-c2nn[nH]n2)cc1,"inconclusive: 28.2 µM [inhibitor, partial curve, poor fit]",
NC(=O)C1CCN(c2cc(-c3noc([C@@H]4CCCN4Cc4ccccc4F)n3)ccn2)CC1,"inconclusive: 100 µM [inhibitor, single point]",
Cc1cccc(/C=C(\C#N)c2nc3ccccc3c(=O)[nH]2)c1,,inactive: -14.8%
CC1(C)C2CCC1(C)C(OC(=O)C[N+]1(CC(=O)OC3CC4CCC3(C)C4(C)C)CCCCC1)C2 (stereo not given),"inconclusive: 44.7 µM [inhibitor, partial curve, poor fit]",
COc1ccc(/C=C/c2nc(C#N)c(NCc3ccc(F)cc3)o2)cc1OC,"inconclusive: 5.62 µM [inhibitor, full curve, poor fit]",
Cc1c(C(=O)N(C)C2CCCCC2)sc2nc3ccc(N)cc3n12,"inconclusive: 35.5 µM [inhibitor, partial curve, poor fit]",
COC(=O)C1CCN(Cc2cc(=O)oc3cc(C)c(C)cc23)CC1,,inactive: -4.11%
O=C(NCCC1=CCCN(CCCn2cccc2)C1)c1ccco1,,inactive: 2.42%
c1ccc(C2=NNC(=NC3CC3)SC2)cc1,"inconclusive: 35.5 µM [inhibitor, partial curve, poor fit]",
Cc1c(Cl)cnc(NC(=O)COC(=O)c2ccc([N+](=O)[O-])s2)c1Cl,"inconclusive: 39.8 µM [inhibitor, partial curve, poor fit]",
COc1ccc(N2CCN(CCCNC(=O)c3cc(Nc4ccc(OC)cc4OC)nc4ccccc34)CC2)cc1,"inconclusive: 63.1 µM [inhibitor, partial curve, poor fit]",
O=S(=O)(c1ccccc1)c1nc(-c2ccccc2)oc1N1CCCC1,,inactive: -5.08%

SMILES,Potency,"activity change, negative = inhibition"
CCCNC(=O)c1ccc2[nH]c(C)c(C)c2c1,,inactive: 12.4%
CCc1nc2c(c(-c3ccc(O)cc3)n1)CCN(Cc1cccc(OC)c1)CC2,"inconclusive: 39.8 µM [inhibitor, partial curve]",
COC(=O)C1=C(C)N(c2ccc(Cl)c(Cl)c2)C(=O)C1,"inconclusive: 35.5 µM [inhibitor, partial curve, poor fit]",
CS(=O)(=O)c1ccc2nc(NC(=O)c3ccc(Cl)cc3)sc2c1,"inconclusive: 89.1 µM [inhibitor, single point]",
O=C(CCS(=O)(=O)c1ccccc1)N(Cc1cccnc1)c1nc2ccc(Cl)cc2s1,"inconclusive: 89.1 µM [inhibitor, partial curve, poor fit]",
Nc1ccc2ccc(O)cc2c1,"inconclusive: 20 µM [inhibitor, partial curve, poor fit]",
C/C(=N\Nc1nccnc1Cl)c1ccc(Cl)c(Cl)c1,"inconclusive: 2.24 µM [inhibitor, partial curve, poor fit]",
Cc1ccc(NC(=O)Cc2ccc(F)cc2)cc1,,inactive: -12.1%
Cc1cc(C)n(-c2nc3c(c(=O)n(CCc4ccccc4)c(=O)n3C)n2CC(C)C)n1,"inconclusive: 5.62 µM [inhibitor, single point]",
O=C(CN1CCN(c2ccccc2O)CC1)Nc1ccc(S(=O)(=O)N2CCCCCC2)cc1,,inactive: -22.1%
OC1(Cn2ccnc2)CCN(Cc2ccccc2Cn2cccn2)CC1,,inactive: 23.1%
COc1ccccc1C(=O)NC1CCN(c2cc(-c3ccccc3)[nH]n2)C1 (stereo not given),,inactive: 27.3%
Cc1cc(C(=O)NC2CC2)c2c(C3CCCN3)noc2n1 (stereo not given),"inconclusive: 14.1 µM [inhibitor, full curve]",
Cn1c(=O)c2c(nc(NCCNC(=O)c3ccco3)n2Cc2ccc(Cl)cc2Cl)n(C)c1=O,,inactive: 8.68%
O=[N+]([O-])c1cccnc1N1CCC(c2cc(-c3ccc(Cl)cc3)n[nH]2)CC1,"inconclusive: 25.1 µM [inhibitor, partial curve, poor fit]",
Cc1ccc(Cn2cc(CN3CC(N4CCN(CCN(C)C)CC4)CS3(=O)=O)nn2)cc1 (stereo not given),"inconclusive: 8.91 µM [inhibitor, full curve]",
OCCN1CCN(CCOc2cccc(Cl)c2)CC1,"inconclusive: 28.2 µM [inhibitor, partial curve, poor fit]",
COc1ccccc1CNC(=O)C1CCC(CNc2c(N3CCC(C)CC3)c(=O)c2=O)CC1 (stereo not given),"inconclusive: 100 µM [inhibitor, single point]",
CCCCC(=O)N1CCN(c2nc(-c3ccco3)c3c(c2C#N)CCCC3)CC1,"inconclusive: 31.6 µM [inhibitor, partial curve, poor fit]",
CCCCN(CC(O)COc1cccc(C)c1)CC(O)COc1cccc(C)c1 (stereo not given),"inconclusive: 89.1 µM [inhibitor, partial curve, poor fit]",

# Random excerpt: 3 entries already listed
SMILES,Potency,"activity change, negative = inhibition"
OCCN1CCN(CCOc2cccc(Cl)c2)CC1,"inconclusive: 28.2 µM [inhibitor, partial curve, poor fit]",
COc1ccccc1C(=O)NC1CCN(c2cc(-c3ccccc3)[nH]n2)C1 (stereo not given),,inactive: 27.3%
O=C(CCS(=O)(=O)c1ccccc1)N(Cc1cccnc1)c1nc2ccc(Cl)cc2s1,"inconclusive: 89.1 µM [inhibitor, partial curve, poor fit]",

# — PubChem BioAssay AID1671190 (National Center for Advancing Translational Sciences (NCATS), 2021)
